These are yes or no findings as the source states them, for the method shown. Binding calls can cover weak binding; strength is not graded here. For part of these data: Binding seen in cells or lysates may run through a third protein.
Legend:
[1] = molecular target: ParP-His6 (Rv3213c) (Mycobacterium tuberculosis) (UniProt O05853); assay: negative-stain EM
[2] = molecular target: ParP-His6 (Rv3213c) (Mycobacterium tuberculosis) (UniProt O05853); assay: SEC
[3] = molecular target: ParP-His6 (Rv3213c) (Mycobacterium tuberculosis) (UniProt O05853); assay: pull-down

Measured: binding

PafE, wild type, untagged, co-expressed with ParP-His6 (from UniProt P9WKX3 1-174)
binds: all assays above

From publication doi:10.1101/249060 (bioRxiv, 2018)
